Test results published in paper PMC10567826.
Results are given in words; binding and its absence hold for the method and conditions named. Binding seen in cells or lysates may run through a third protein. Some entries that bind do so weakly or less than the wild type.

Chains of the proteins cited; added tags and fusions are not shown.
UniProt Q08211: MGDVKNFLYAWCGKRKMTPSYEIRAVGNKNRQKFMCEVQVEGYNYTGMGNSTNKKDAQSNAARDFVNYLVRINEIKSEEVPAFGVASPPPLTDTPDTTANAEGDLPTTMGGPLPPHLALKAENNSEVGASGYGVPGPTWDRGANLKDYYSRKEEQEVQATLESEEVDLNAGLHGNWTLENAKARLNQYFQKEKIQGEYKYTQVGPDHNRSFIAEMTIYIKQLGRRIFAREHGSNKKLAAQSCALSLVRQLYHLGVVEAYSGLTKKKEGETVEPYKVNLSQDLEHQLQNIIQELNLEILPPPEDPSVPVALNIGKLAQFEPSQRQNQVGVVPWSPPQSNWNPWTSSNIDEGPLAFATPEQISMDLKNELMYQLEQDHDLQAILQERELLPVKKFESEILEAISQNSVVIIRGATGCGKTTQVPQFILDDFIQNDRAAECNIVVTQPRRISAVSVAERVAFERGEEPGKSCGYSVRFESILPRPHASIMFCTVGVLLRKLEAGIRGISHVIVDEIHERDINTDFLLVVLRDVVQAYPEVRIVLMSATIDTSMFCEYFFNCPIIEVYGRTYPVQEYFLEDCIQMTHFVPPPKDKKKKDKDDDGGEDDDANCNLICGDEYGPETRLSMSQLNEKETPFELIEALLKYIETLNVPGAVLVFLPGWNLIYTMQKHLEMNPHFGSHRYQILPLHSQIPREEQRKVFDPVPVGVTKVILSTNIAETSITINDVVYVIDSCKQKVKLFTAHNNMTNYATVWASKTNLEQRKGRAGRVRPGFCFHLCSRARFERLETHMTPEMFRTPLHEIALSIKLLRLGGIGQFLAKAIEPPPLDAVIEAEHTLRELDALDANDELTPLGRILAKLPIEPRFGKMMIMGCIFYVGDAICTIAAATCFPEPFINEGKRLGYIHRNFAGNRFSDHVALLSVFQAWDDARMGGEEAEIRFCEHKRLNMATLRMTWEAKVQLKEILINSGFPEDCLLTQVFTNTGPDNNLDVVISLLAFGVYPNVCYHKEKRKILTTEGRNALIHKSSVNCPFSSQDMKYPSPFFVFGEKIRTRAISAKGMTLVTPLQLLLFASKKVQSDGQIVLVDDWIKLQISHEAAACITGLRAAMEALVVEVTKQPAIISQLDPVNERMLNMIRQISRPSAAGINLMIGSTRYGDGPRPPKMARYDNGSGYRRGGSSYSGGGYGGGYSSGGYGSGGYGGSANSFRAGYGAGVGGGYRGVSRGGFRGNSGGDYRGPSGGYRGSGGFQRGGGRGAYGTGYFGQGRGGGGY
UniProt Q04206: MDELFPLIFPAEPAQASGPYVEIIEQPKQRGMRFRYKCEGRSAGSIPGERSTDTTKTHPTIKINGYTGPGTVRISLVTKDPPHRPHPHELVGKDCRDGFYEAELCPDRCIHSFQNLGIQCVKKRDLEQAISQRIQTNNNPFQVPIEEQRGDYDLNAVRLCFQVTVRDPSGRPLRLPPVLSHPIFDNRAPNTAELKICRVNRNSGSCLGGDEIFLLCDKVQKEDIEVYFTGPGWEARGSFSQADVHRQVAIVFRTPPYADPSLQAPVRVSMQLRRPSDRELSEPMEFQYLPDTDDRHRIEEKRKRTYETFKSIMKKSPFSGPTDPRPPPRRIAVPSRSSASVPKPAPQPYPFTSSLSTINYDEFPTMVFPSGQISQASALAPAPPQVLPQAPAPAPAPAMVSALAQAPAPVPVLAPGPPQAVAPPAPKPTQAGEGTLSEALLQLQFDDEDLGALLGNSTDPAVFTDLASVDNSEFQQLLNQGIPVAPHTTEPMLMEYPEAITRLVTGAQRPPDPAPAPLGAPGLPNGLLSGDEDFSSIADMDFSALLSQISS

Tests used:
[1] = molecular target: DExH-Box helicase 9 (DHX9) (human (endogenous in THP-1-derived macrophages)) (UniProt Q08211); assay: co-IP; nuclear fractions of macrophages; immunoprecipitated with DHX9 antibody, Western blot for p65
[2] = molecular target: DExH-Box helicase 9 (DHX9) (human (endogenous in THP-1-derived macrophages)) (UniProt Q08211); assay: co-IP; lysate of macrophages treated with or without 40 μg/mL oxLDL for 24 h; immunoprecipitated with DHX9 antibody, Western blot for p65

p65 nuclear factor kappa-light-chain-enhancer of activated B cells (NF-κB) (from UniProt Q04206 1-551)
binding [1]: binds | binding [2]: binds
